Chains of the proteins cited; added tags and fusions are not shown.
UniProt P43490, whole entry: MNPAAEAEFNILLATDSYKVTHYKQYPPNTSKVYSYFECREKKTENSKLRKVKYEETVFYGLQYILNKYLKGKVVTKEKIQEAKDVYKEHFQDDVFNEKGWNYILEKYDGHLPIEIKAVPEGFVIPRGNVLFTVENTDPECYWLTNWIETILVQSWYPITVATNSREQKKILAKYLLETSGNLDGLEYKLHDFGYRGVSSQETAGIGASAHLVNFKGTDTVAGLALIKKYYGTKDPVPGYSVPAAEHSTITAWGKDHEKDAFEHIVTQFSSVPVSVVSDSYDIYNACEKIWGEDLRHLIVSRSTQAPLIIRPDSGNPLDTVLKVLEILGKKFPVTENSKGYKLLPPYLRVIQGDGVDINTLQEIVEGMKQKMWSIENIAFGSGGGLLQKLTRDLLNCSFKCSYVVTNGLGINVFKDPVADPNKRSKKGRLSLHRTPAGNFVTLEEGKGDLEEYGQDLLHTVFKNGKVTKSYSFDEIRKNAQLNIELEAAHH

In patent US9555039B2, “Piperidine derivatives and compositions for the inhibition of nicotinamide phosphoribosyltransferase (NAMPT)” (Forma TM, LLC., priority 2011, dated 2017):

Tests used:
[1] = target: Recombinant His-tagged NAMPT (Homo sapiens, UniProt P43490); assay: Biochemical inhibition assay: NAMPT enzymatic reaction, NMN quantified by mass spectrometry; settings: read-out: Biochem IC50; 33 nM NAMPT, 1 μM NAM, 100 μM PRPP, 2.5 mM ATP, 30 minutes at room temperature
A2780 cells = assay: In-vitro cell proliferation assay (SRB, 72 hours); assay type: cell-based; settings: read-out: A2780 IC50, sulforhodamine B (SRB) assay

| Structure (SMILES) | IC50 [1] | IC50 (A2780 cells) |
| --- | --- | --- |
| O=C(NCCCCC1CCN(C(=O)c2ccccc2Cl)CC1)c1cc2ccncc2s1 | 8.3 nM | 1.7 nM |
| CCOc1ncccc1C(=O)N1CCC(CCCCNC(=O)c2cc3ccncc3s2)CC1 | 5.6 nM | – |
| COc1ccc(C(=O)N2CCC(CCCCNC(=O)c3cc4ccncc4s3)CC2)c(OC)c1 | 15.7 nM | 6.9 nM |
| Cc1nc(C)c(C(=O)N2CCC(CCCCNC(=O)c3cc4ccncc4s3)CC2)s1 | 35.5 nM | 13 nM |
| O=C(NCCCCC1CCN(C(=O)c2cc3ccncc3s2)CC1)c1cc2ccncc2s1 | 15.2 nM | 100 to 1000 nM |

Structures were worked out from names or drawings and are uncertain.
